In patent publication US20040170622A1, “Methods and compositions for modulating XBP-1 activity” (President and Fellows of Harvard College, priority 2002, published 2004):
Results are given in words; binding and its absence hold for the method and conditions named. Binding seen in cells or lysates may run through a third protein. Some results given as binding are weak or reduced against the parent protein; the word gives no strength.

Chains of the proteins cited; added tags and fusions are not shown. Residues count along the entry.
UniProt P18850, residues 1-373: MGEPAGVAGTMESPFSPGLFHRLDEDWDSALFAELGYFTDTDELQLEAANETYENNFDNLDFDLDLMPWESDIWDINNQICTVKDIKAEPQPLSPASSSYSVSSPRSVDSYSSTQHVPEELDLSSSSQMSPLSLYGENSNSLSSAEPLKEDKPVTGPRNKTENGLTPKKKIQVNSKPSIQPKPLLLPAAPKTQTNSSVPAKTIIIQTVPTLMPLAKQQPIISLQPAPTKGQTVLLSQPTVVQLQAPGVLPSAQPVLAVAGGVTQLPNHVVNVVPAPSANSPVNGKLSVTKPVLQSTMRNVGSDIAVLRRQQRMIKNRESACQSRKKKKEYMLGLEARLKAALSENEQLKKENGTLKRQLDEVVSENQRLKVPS

T1: XBP-1s (spliced form of murine XBP-1 protein, 371 aa) (mouse) (UniProt O35426)
T1 sequence (looked up): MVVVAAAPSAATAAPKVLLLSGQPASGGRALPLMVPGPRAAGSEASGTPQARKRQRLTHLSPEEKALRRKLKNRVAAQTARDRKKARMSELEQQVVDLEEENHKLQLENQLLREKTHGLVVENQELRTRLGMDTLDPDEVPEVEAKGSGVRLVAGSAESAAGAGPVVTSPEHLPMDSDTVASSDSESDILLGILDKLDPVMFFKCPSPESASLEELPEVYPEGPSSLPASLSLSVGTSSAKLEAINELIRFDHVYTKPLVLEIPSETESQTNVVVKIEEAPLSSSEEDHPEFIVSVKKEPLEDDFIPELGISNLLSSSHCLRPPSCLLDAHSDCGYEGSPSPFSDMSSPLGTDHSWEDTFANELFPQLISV


Key:
HA-tagged ATF6α (1-373) [1] = target: HA-tagged ATF6α (1-373) (UniProt P18850); test: co-immunoprecipitation from 293-T cells overexpressing HA-tagged ATF6α (1-373) and XBP-1s
HA-tagged ATF6α (1-373) [2] = target: HA-tagged ATF6α (1-373) (UniProt P18850); test: co-immunoprecipitation from cotransfected 293T cells (anti-HA IP, anti-XBP-1 immunoblot)
[3] = target: T1, XBP-1s (spliced form of murine XBP-1 protein, 371 aa) (mouse); test: co-immunoprecipitation from transfected 293T cells
HA-tagged ATF6α (1-373) [4] = target: HA-tagged ATF6α (1-373) (UniProt P18850); test: co-immunoprecipitation from transfected 293T cells

Row | Binder | binding (HA-tagged ATF6α (1-373) [1]) | binding (HA-tagged ATF6α (1-373) [2]) | binding [3] | binding (HA-tagged ATF6α (1-373) [4])
1 | XBP-1s (spliced form of murine XBP-1 protein, 371 aa) (protein, mouse, UniProt O35426-2 1-371, looked up) MVVVAAAPSAATAAPKVLLLSGQPASGGRALPLMVPGPRAAGSEASGTPQARKRQRLTHLSPEEKALRRKLKNRVAAQTARDRKKARMSELEQQVVDLEEENHKLQLENQLLREKTHGLVVENQELRTRLGMDTLDPDEVPEVEAKGSGVRLVAGSAESAAGAGPVVTSPEHLPMDSDTVASSDSESDILLGILDKLDPVMFFKCPSPESASLEELPEVYPEGPSSLPASLSLSVGTSSAKLEAINELIRFDHVYTKPLVLEIPSETESQTNVVVKIEEAPLSSSEEDHPEFIVSVKKEPLEDDFIPELGISNLLSSSHCLRPPSCLLDAHSDCGYEGSPSPFSDMSSPLGTDHSWEDTFANELFPQLISV | binds | binds | – | –
2 | dn-XBP (dominant negative XBP-1, N-terminal half, aa 1 to 188, of the XBP-1s protein) (protein, mouse, UniProt O35426-2 1-188, looked up) MVVVAAAPSAATAAPKVLLLSGQPASGGRALPLMVPGPRAAGSEASGTPQARKRQRLTHLSPEEKALRRKLKNRVAAQTARDRKKARMSELEQQVVDLEEENHKLQLENQLLREKTHGLVVENQELRTRLGMDTLDPDEVPEVEAKGSGVRLVAGSAESAAGAGPVVTSPEHLPMDSDTVASSDSESD | – | – | binds | binds
